The series is described as follows: Metabolic stability in human liver microsomes. The class given is in vitro ADME. The settings on record: pH 7.4; pooled human liver microsomes 0.5 mg/mL, test compound 3 μM, NADPH, 0, 5, 15, 30, 45 min, LC-MS/MS; read-out: CLint (μL/min/mg protein). (Microsomes from liver hold many membrane-bound enzymes, among them those of drug oxidation.)

For the compound `CN1C(=O)CN=C(c2ccccc2)c2cc(Cl)ccc21` [Diazepam, reference compound], the microsomal CLint at 3 μM turned out to be 89.4 µL/min/mg.

As to `CN(C)CCOC(c1ccccc1)c1ccccc1` [Diphenhydramine, reference compound], the microsomal CLint at 3 μM turned out to be 690 µL/min/mg.

The values above are taken from patent US20250195477A1, “DEUTERATED IDAZOXAN AND METHODS OF USE THEREOF” (Terran Biosciences Inc., priority 2022, published 2025).
